Results from PubChem BioAssay AID2685 (National Center for Advancing Translational Sciences (NCATS), 2010).
The other results are listed elsewhere or left out. The main result of the screen is listed elsewhere. These columns were measured beside it and carry no call. Compounds called inactive in the main read-out are mostly missing here. Potencies come from curve fits of mixed quality, noted in brackets.

Assay: qHTS Assay for Lipid Storage Modulators in Drosophila S3 Cells;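 on cell number change: cells counted by Cell Tracker Red CMTPX staining in the red channel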
Conditions: BODIPY lipid droplet fluorescence, 18-24 h; for cell number change: measured here: cell count max response, cells fed with added oleic acid
Outline: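 Drosophila S3 cells got compounds at several concentrations plus oleic acid (400 uM solution). Laser-scanning cytometry with 488 nm excitation read lipid droplets at 500-530 nm and cells at 575-640 nm. Percent activity was relative to 20 uM Triacsin C.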

[1] = measured here: cell number channel AC50, cells fed with added oleic acid
[2] = measured here: lipid fluorescence (Fed channel) AC50, cells fed with added oleic acid

SMILES | cell number change [%] | AC50 [1] | AC50 [2]
CCOC(=O)c1sc(N2C(=O)C(O)=C(C(=O)c3ccc(C)o3)C2c2cccc([N+](=O)[O-])c2)nc1C (stereo unspecified) | -36.5 | 16.4 µM [falling, single point] | 29.1 µM [falling, single point]
CCS(=O)(=O)C1=NN2C(=N)/C(=C\c3ccc(OS(=O)(=O)c4ccccc4)c(OC)c3)C(=O)N=C2S1 | -7.08 | 6.51 µM [falling, single point] | 0.58 µM [falling, single point]
